Assay results from US20220183994A1, “DELIVERY DEVICES FOR LOCALIZED DELIVERY OF ANTIMICROBIAL, ANTI-INFLAMMATORY, AND ANTIOXIDANT AGENTS” (priority 2019, published 2022).
Some results were stated once for a whole list of compounds, not compound by compound.

Test: Total Antioxidant Capacity Assay (Trolox standard curve, Cu+2 probe)
Settings: 10 mM antioxidant, compared with trolox
Method: Activity of antioxidants. […] A standard curve correlating the Trolox concentration to the antioxidant capacity was generated according to manufacturer's protocol. […] Two million 16HBE cells were seeded into each well of a 12-well plate and incubated overnight as described above. […] Finally, the insoluble cell debris was removed by centrifugation and the supernatant analyzed as described above to determine the total antioxidant capacity. All experiments were performed with 4 technical replicates and two biological replicates.

SMILES: CC(=O)N[C@@H](CS)C(=O)O [NAC, N-acetyl cysteine]
- antioxidant capacity, trolox equivalent: 5-7 fold
